Assay results taken from publication PMC12218279.

Experiments:
[1] = target: T1, PfSKP1-HA (P. falciparum) (UniProt Q8ID38); experiment: affinity purification with mass spectrometry; anti-HA agarose immunoprecipitation of PfSKP1-HA from schizont lysate (0.5X RIPA buffer, 1 h at room temperature), LC-MS/MS (DIA); parental DiCre strain as control
T1 sequence: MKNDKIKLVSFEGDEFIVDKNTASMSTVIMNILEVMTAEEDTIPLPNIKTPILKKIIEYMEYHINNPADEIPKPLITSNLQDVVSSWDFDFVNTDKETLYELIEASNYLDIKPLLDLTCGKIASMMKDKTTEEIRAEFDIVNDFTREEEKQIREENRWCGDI

[2] = target: T2, PfRBX1-HA (P. falciparum) (UniProt O77367); experiment: affinity purification with mass spectrometry; anti-HA agarose immunoprecipitation of PfRBX1-HA from schizont lysate (0.5X RIPA buffer, 1 h at room temperature), LC-MS/MS (DIA); parental DiCre strain as control
T2 sequence: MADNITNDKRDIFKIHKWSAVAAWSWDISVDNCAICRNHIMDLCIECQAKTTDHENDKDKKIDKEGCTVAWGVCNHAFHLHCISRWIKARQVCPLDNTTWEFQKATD

[3] = target: T3, PfMCM4-Flag (P. falciparum) (UniProt Q8IEE5); experiment: affinity purification with mass spectrometry; anti-Flag agarose immunoprecipitation of PfMCM4-Flag from schizont lysate (0.5X RIPA buffer), LC-MS/MS; DiCre strain as control; also from DiCre-PfSKP1-HA and DiCre-PfRBX1-HA backgrounds pre-treated with DMSO or rapamycin
T3 sequence: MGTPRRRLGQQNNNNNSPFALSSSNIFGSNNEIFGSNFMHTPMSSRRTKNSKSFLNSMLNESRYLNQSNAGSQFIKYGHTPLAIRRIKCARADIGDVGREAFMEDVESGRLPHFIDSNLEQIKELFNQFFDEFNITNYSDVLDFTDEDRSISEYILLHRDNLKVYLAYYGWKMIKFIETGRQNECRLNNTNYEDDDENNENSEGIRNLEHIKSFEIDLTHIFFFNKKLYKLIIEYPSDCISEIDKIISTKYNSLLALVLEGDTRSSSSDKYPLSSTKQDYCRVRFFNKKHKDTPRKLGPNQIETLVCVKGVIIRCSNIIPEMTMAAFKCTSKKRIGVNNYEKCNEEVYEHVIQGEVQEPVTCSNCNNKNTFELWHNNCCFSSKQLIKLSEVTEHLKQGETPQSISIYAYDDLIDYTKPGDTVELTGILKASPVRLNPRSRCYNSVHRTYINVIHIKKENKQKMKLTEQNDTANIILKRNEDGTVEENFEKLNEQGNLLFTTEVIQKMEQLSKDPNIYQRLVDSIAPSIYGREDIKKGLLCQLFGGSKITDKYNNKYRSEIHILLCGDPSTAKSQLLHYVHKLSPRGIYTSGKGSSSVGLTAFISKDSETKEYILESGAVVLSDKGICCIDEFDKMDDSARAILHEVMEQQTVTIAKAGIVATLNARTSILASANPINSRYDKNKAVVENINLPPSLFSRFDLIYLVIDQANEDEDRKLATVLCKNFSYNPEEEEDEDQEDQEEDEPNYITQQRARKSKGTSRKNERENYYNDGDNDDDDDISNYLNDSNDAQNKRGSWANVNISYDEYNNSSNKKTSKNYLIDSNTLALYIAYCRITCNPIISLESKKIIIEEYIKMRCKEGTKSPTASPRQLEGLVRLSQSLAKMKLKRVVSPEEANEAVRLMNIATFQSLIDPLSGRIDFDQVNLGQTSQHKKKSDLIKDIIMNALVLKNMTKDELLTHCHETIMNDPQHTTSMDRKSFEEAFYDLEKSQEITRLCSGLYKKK

[4] = target: T4, PfFBOX01-HA (P. falciparum) (UniProt C6KT37); experiment: affinity purification with mass spectrometry; anti-HA beads, immunoprecipitation of PfFBOX01-HA from schizont lysate (0.5X RIPA buffer), LC-MS/MS; DiCre strain as control
T4 sequence: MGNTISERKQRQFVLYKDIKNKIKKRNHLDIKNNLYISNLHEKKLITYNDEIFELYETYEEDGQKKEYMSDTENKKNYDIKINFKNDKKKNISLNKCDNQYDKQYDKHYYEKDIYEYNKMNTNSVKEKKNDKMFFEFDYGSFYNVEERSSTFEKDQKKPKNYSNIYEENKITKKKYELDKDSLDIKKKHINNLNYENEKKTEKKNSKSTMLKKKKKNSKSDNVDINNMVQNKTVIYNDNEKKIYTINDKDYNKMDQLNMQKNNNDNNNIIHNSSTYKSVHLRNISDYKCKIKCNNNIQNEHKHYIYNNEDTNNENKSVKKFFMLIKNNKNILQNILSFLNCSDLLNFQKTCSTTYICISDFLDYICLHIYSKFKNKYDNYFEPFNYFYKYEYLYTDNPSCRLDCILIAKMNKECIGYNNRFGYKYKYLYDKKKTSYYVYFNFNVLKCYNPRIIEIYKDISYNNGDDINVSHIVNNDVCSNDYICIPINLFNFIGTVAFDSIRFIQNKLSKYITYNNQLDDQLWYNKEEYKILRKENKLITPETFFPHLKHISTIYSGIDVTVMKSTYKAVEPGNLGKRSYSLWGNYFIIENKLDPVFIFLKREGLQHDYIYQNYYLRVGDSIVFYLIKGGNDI

[5] = target: T5, PfRBX1-HA (P. falciparum), O77367; experiment: affinity purification with mass spectrometry; anti-HA agarose immunoprecipitation of PfRBX1-HA from schizont lysate (0.5X RIPA buffer, 1 h at room temperature), LC-MS/MS (DIA); parental DiCre strain as control; details: remark: other sources report otherwise
T5 chain: T2 sequence

B1: PfCullin1 (protein, UniProt Q8IAU5 1-829)
chain: MDIVNINFESGWKIIREEAIEKIEKYLENEHIEKNKNLFSATEYTRLYTVVYNMCAKKNPFCYSKEVYRKYGESLSMYTIDKIKPLLKNSDELNKTKILIDAWFKYSFYTKWMNKFLRYLDRYYVEYNSSLCLSAYTKNIFKITLFNELREDIKNIIYEIYNNLRLQEEIDQKELFCNIVELYKELDNESNEKMYEHDIEKKIVENVNNFYKKKAEEWINDYPFDDYIISIENAIEKEYEKNKSLNLNDDTCEKVTNIIVKILIYEKLNTLIDNKNNIFHLLKNNNLSSLRRTYILFSYFPEALTGLKKIIGEYIKMEGNELKDKYVQLSRKMHMSKNVNNMQNVDDNTMEDNDNYIDISNDDNNNNDNSNNNNIMNTEQNDDIILCDYIEQLIKLHNHYDNIFKLSFFNISNKNIDPNFNECLKDYFESFVEHEDEYFSTVKLLVIYTDNILKRDLNNENSVDEKQKIHMNKEEKNDEQTKFLMKKMSEIVEIFNYTSNKETFFEYYRVYLANRLINNIYISLHIEKKFIEQLYYLCGSQYTSKLGGMIQDLINNTNMNNKFYDHMKNVFNNNEIVNNNNNNSIYNDHFSNYHNVKDFFSVKILNKGYWPTLEKIHIQLNEPFNKYIQVFEEYYKSENKNRKLEWIYELSEVILHYEFNNILYNLYCNVVNAQILLLFNKYKYINYDIVKNELQIDLKSFTDHMYTSFYHFKLITSNDQIPDWTNSNFYINNNFSYPNKNVYIKKTTALLSKEHEKTKEDRTMAIEAAIVRVMKMHKKLFYDQIFDYVKKSLSSFSPTNQVIEKKIDLLVEREYIQKEENSQIYVYIP
binding [1]: binds
binding [2]: binds
binding [3]: binds

B2: PfSKP1 (protein, UniProt Q8ID38 1-162)
chain: T1 sequence
binding [4]: binds

B4: PfFBOX01 (protein, UniProt C6KT37 1-633)
chain: T4 sequence
binding [1]: binds
binding [2]: no binding

B5: PF3D7_0506700, a GTP-ase activating protein (protein, UniProt Q8I435 1-819)
chain: MFNHDIIKEKDNYKQKIRTLYRNEKEAIKPCNHYDMKEEEKKKSGKIKRSIKLFGTPAVHGLSSHINNNSGTQLYYNFHNVLKRDKEKIQDDNLNYTLERDAGEDNTMQSIHESDKTETQECGKHYLYNKFDIYKSYLSYKKDLIRNEYDQDYKGITTSLLKGKDTHDDNKDNKDNDDNDDNDDNNDHNDHYDITRDDPCDDMCDDMCEDMCDDMCDDMCDDPCDDMCDDPCDDMCDDPCDDMCDDPCDDPYDHPYEEEKYSTYCDKGYLRNFLKNAIIRPNLQTFVGRKIISFLNEKERDIFSLTCKILFFEVYSVSNLKTLYKYQFISNEKRSFIWKAILLEDNTYISEEDYKELRNRKCLYDKAIEKDINRTFPKHPFFINKNMNMQDKLLDILKVCSLYFERIGYCQGMNYIAGILLLVFRKNIDTIRCFISMLKNYNIKGMFSYNFPQLKKIIYQLNLLIKAYIPKLFYYFKRKKIKIDFFCVNWFLTLFSQDLSFENTLKLWDLFFLFGMKILIKLTLILLYYHEDNIIHLSYDEALTYLKAITKTPFIDYLFQDDHFFTHLKKFKITNSMLTQIIMLKKSRQKINLLVKENNGKLRCSIQIKQNNKHTFTSKIKEGFRNLFKLNENYVDYINYFYQKGDGEENNGNQNNGEEYNGKEYNGNQNNGNQNNGKQNNGNQNNGKQNNGNQNNVKQNNGEDTNKNNNNDDINNNICHNNYSSTNFYKNFFQHFNCGNIFNNPNYSNEIVLTNTTCLSVHFNSNVLCNSQNIKNKNTIHSLENIKEEHDHTKNPSNFFLETNTYYDLNLTKSVDGNN
binding [1]: binds

Other lines, results leading:

binding [1]: binds
binding [4]: binds
B3: Rab11b (protein, UniProt C0H5G2 1-229)
chain: MSNEEYDHLYKIILVGDATVGKTHLLSRYIRGSLPSVAKATIGVEFATRTIPLAVGGTVKAQIWDTAGQERYRSITSAHYRRSAGAILVYDITKKKTFLSISKWLEEIRQNADKDIVIMLVGNKVDLTEEDETKRKVTYEQGANFARENNLFFAEASAVSKLNVKHIFENLLQEIYNNRLKNNNRSFSNRSVATCESAIQLTKARSVIKLNEVYDNQSEDNNMNKVKCC

binding [5]: binds
B6: PfSKP1, Q8ID38 1-162 (protein)
chain: T1 sequence

These are yes or no findings as the source states them, for the method shown. Binding seen in cells or lysates may run through a third protein. These calls come from enrichment with a bait or labelling near it, and not all partners need be listed. For some of these results: A no says only that the protein was not detected with the bait. Sequences can lack the tags named with a protein. One block for each binder: values may come before it.
